Source: patent publication US20230193265A1, “CUG REPEAT SEQUENCE BINDING AGENT” (OSAKA UNIVERSITY, priority 2020, published 2023)
For at least one compound, name, drawing or mass did not settle the structure.

Assays:
r(CUG)9 = assay: Surface plasmon resonance (SPR) binding to immobilized r(CUG)9 RNA
Description: A streptavidin-coated sensor chip (SA chip, GE Healthcare) was washed with HBS-EP^+ buffer (10 mM HEPES, pH 7.4, 0.15 M NaCl, 3 mM EDTA and 0.05% v/v Surfactant P20) for 6 minutes, and then activated with three consecutive 1-min injection of 30 μL of activation buffer (50 mM NaOH and 1 M NaCl).
5′-Biotinylated r(CUG)9 (Thermo Fisher Scientific Inc.) was diluted to 0.1 μM with HEPES buffer (10 mM HEPES and 500 mM NaCl) and flowed onto the sensor chip until immobilized response units (RU) reaching around 400 RU. The amount of r(CUG)9 immobilized on the surface of the sensor chip was at 401 RU.
Surface plasmon resonance was measured using BIAcore T200 SPR system (GE Healthcare).
r(CUG)9 used for the SPR assay has the sequence as shown below.
For single-cycle kinetic (SCK) analysis, the surface of the sensor chip was conditioned by 120 sec exposure of continuous flow of HBS-EP^+ buffer at a flow rate of 30 μL/min at 25° C. […]
The obtained SPR response curves were analyzed using BIAcore T200 evaluation software (version 2.0). […]
The resonance unit for the compound at a concentration of 25 nM in Example 1 was calculated from the measured value (1.9 RU) for the compound at 63 nM using the formula: 1.9 RU×(25 nM/63 nM).

[1] = test system: Atp2a1 (sarcoplasmic reticulum Ca2+/ATPase gene) Exon 22 splicing; assay: Improvement of Atp2a1 splicing abnormality in DM1 mouse model; format: in vivo, homozygous HSA^LR transgenic mice; conditions: 10 mg/kg/day and 20 mg/kg/day, intraperitoneal, five days; FIG. 4
Description: (§1) Gender- and age-matched homozygous HSA^LR transgenic mice of line 20b (FVB inbred background) (Science 2000, 289, 1769-1772) (<3 months old) were treated with JM642 at indicated doses (10 mg/kg/day and 20 mg/kg/day) for five days by daily intraperitoneal administration. After treatments, the rectus femoris (quadriceps) were obtained for splicing analysis. Total RNA extraction from the tissue, cDNA synthesis and polymerase chain reaction (PCR) were carried out according to Ann. Clin. Transl. Neurol. 2016, 3, 42-54. The PCR products were separated by agarose gel electrophoresis, and the gel was stained with GelRed (Biotium). The gel was imaged using a Typhoon laser fluorimager (GE Healthcare) and the gel bands were quantified using ImageQuant (GE Healthcare).
(§2) For normal mice and mice treated in the same manner as above except that JM642 was not administered, total RNA extraction, cDNA synthesis, PCR and electrophoresis of the PCR products were performed in the same manner as above.
Evaluation was performed in the same manner as in Example 3 except that the compound (DDAP) shown below synthesized in accordance with the method described in non-patent literature 3 was used in place of compound JM642.

[2] = test system: Clcn1 (muscle-specific chloride channel gene) Exon 7a splicing; assay: Improvement of Clcn1 splicing abnormality in DM1 mouse model; format: in vivo, homozygous HSA^LR transgenic mice; conditions: 10 mg/kg/day and 20 mg/kg/day, intraperitoneal, five days; FIG. 7
Description: as §1, §2
Evaluation was performed in the same manner as in Example 3 except that Clcn1 was studied in place of Atp2a1.
Evaluation was performed in the same manner as in Example 4 except that the compound (DDAP) shown above synthesized in accordance with the method described in non-patent literature 3 was used in place of compound JM642.

For `NCCCNc1nc(NC(=O)OCCCNC(=O)CCNCCC(=O)NCCCOC(=O)Nc2cc3c(-c4ccnc(N5CCNCC5)c4)cccc3c(NCCCN)n2)cc2c(-c3ccnc(N4CCNCC4)c3)cccc12` [JM642, ((3,3′-azanediylbis(propanoyl))bis(azanediyl))bis(propane-3,1-diyl)bis((1-((3-aminopropyl)amino)-5-(2-(piperazin-1-yl)pyridin-4-yl)isoquinolin-3-yl)carbamate)], the “Resonance unit (RU) at concentration of 25 nM” value (r(CUG)9; 25 nM compound, r(CUG)9 immobilized at 401 RU, BIAcore T200, 25° C.) was 14.3 RU, the “binding capacity to the CUG repeat sequence” value (r(CUG)9; SPR, FIGS. 1 and 2 and Table 2) was “observed” and the “inclusion rates for Exon 22 (ex22) in Atp2a1” value [1] was “high inclusion rates”. For the same compound, the “skipping rates for Exon 7a (ex7a) in Clcn1” value [2] was “high skipping rates”.
